From article doi:10.1101/2025.10.20.683344
No constants are given. Whether binding was seen depends on the method and setting. For part of these data: In cells and extracts the contact can be indirect. Some binding calls cover weakened binding; strength is not graded here. For part of these data: Sequences can lack the tags named with a protein. One block for each binder: values may come before it.

What was measured:
[1] = target: OsERS1 (ETHYLENE RESPONSE SENSOR 1), split-luciferase fusions (rice (Oryza sativa)) (UniProt Q53RH0); assay: split reporter
[2] = target: OsERS1 (ETHYLENE RESPONSE SENSOR 1), FLAG- and GFP-tagged copies for co-immunoprecipitation (rice (Oryza sativa)) (UniProt Q53RH0); assay: co-IP
[3] = target: OsERS1 in membrane fractions of N. benthamiana leaves (rice (Oryza sativa)) (UniProt Q53RH0); assay: Western blot with and without reductant

binding [1]: binds
B1: OsERS1 (ETHYLENE RESPONSE SENSOR 1), split-luciferase fusions (receptor, UniProt Q53RH0 1-636)
chain: MDGCDCIEPLWPTDELLIKYQYISDFFIALAYFSIPLELIYFVKKSSFFPYRWVLIQFGAFIVLCGATHLINLWTFTTHTKTVAMVMTVAKVSTAVVSCATALMLVHIIPDLLSVKTRELFLKNKAEQLDREMGLIRTQEETGRHVRMLTHEIRSTLDRHTILKTTLVELGGTLGLEECALWMPSRSGSSLQLSHTLRHQITVGSTVSINLPVVNQVFSSNRAIIIPHTSPLARIRPLAGRYVPPEVAAVRVPLLHLSNFQINDWPELSAKSYAIMVLMLPSDSARKWHVHELELVEVVADQVAVALSHAAILEESMRARDLLMEQNVALDLARREAEMAIRARNDFLAVMNHEMRTPMNAIIALSSLLLETELTPEQRLMVETVLKSSNLLATLINDVLDLSKLEDGSLELEIKAFNLHAVFKEVMSFIKPIAAIKRLSVSVMLAPDLPLCAIGDEKRLMQTILNISGNAVKFTKEGHITLVASVVKADSLREFRTPDFHPTASDDNFYLKVQIKDTGCGISPQDLPQVFTKFAQSQPGGNRGYSGSGLGLAICKRFVTLMGGHIWLDSEGTGRGCTVTFVIQLGICDNTNAYQQKLIPLVWPSSGDADFVGPVPNAPNEEKGQASLKSRYQRSI

binding [2]: binds
B2: OsERS1 (ETHYLENE RESPONSE SENSOR 1), FLAG- and GFP-tagged copies for co-immunoprecipitation (receptor, UniProt Q53RH0 1-636)
chain: MDGCDCIEPLWPTDELLIKYQYISDFFIALAYFSIPLELIYFVKKSSFFPYRWVLIQFGAFIVLCGATHLINLWTFTTHTKTVAMVMTVAKVSTAVVSCATALMLVHIIPDLLSVKTRELFLKNKAEQLDREMGLIRTQEETGRHVRMLTHEIRSTLDRHTILKTTLVELGGTLGLEECALWMPSRSGSSLQLSHTLRHQITVGSTVSINLPVVNQVFSSNRAIIIPHTSPLARIRPLAGRYVPPEVAAVRVPLLHLSNFQINDWPELSAKSYAIMVLMLPSDSARKWHVHELELVEVVADQVAVALSHAAILEESMRARDLLMEQNVALDLARREAEMAIRARNDFLAVMNHEMRTPMNAIIALSSLLLETELTPEQRLMVETVLKSSNLLATLINDVLDLSKLEDGSLELEIKAFNLHAVFKEVMSFIKPIAAIKRLSVSVMLAPDLPLCAIGDEKRLMQTILNISGNAVKFTKEGHITLVASVVKADSLREFRTPDFHPTASDDNFYLKVQIKDTGCGISPQDLPQVFTKFAQSQPGGNRGYSGSGLGLAICKRFVTLMGGHIWLDSEGTGRGCTVTFVIQLGICDNTNAYQQKLIPLVWPSSGDADFVGPVPNAPNEEKGQASLKSRYQRSI

binding [3]: binds
B3: OsERS1 in membrane fractions of N. benthamiana leaves (receptor, UniProt Q53RH0 1-636)
chain: MDGCDCIEPLWPTDELLIKYQYISDFFIALAYFSIPLELIYFVKKSSFFPYRWVLIQFGAFIVLCGATHLINLWTFTTHTKTVAMVMTVAKVSTAVVSCATALMLVHIIPDLLSVKTRELFLKNKAEQLDREMGLIRTQEETGRHVRMLTHEIRSTLDRHTILKTTLVELGGTLGLEECALWMPSRSGSSLQLSHTLRHQITVGSTVSINLPVVNQVFSSNRAIIIPHTSPLARIRPLAGRYVPPEVAAVRVPLLHLSNFQINDWPELSAKSYAIMVLMLPSDSARKWHVHELELVEVVADQVAVALSHAAILEESMRARDLLMEQNVALDLARREAEMAIRARNDFLAVMNHEMRTPMNAIIALSSLLLETELTPEQRLMVETVLKSSNLLATLINDVLDLSKLEDGSLELEIKAFNLHAVFKEVMSFIKPIAAIKRLSVSVMLAPDLPLCAIGDEKRLMQTILNISGNAVKFTKEGHITLVASVVKADSLREFRTPDFHPTASDDNFYLKVQIKDTGCGISPQDLPQVFTKFAQSQPGGNRGYSGSGLGLAICKRFVTLMGGHIWLDSEGTGRGCTVTFVIQLGICDNTNAYQQKLIPLVWPSSGDADFVGPVPNAPNEEKGQASLKSRYQRSI
